Reference: PubChem BioAssay AID1159584 (Peter MacCallum Cancer Centre, 2016)
Purpose: 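Genes whose loss is lethal only together with E-cadherin loss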 (primary screen). Cells: human MCF10A breast epithelial cells, parental and CDH1-null. Reagent: siRNA against human genes. Measured: 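Cell viability by CellTiter-Glo ATP luminescence, each line scaled to the mean of mock wells across plates, then CDH1-null over parental ratio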. Scale: CDH1-null / parental viability ratio: higher = CDH1-null cells survive relatively better than parental; CDH1-null viability vs mock: higher = more viable CDH1-null cells; parental viability vs mock: higher = more viable parental cells.
The whole screen tested about 18,000 reagents; below is a part drawn at random. Not given: the amount of reagent, the time to read-out.

gene | PubChem SID | CDH1-null / parental viability ratio | CDH1-null viability vs mock (fraction of mock) | parental viability vs mock (fraction of mock)
RGS7BP | SID152153534 | 0.79 | 0.66 | 0.84
GLT6D1 | SID135623749 | 1.07 | 0.94 | 0.88
TARS1 | SID134316107 | 1.01 | 0.91 | 0.9
LINC01599 | SID152152291 | 1.36 | 0.8 | 0.59
ANGPTL1 | SID134312744 | 0.86 | 0.94 | 1.09
CDHR1 | SID135622588 | 1 | 0.82 | 0.82
SOX13 | SID134323783 | 0.81 | 0.46 | 0.57
NOX4 | SID134314804 | 1.01 | 0.82 | 0.81
HS3ST2 | SID134314682 | 1.05 | 1.01 | 0.96
LBHD1 | SID152153391 | 0.81 | 0.57 | 0.7
COL19A1 | SID152153072 | 0.97 | 0.88 | 0.91
TTC3 | SID134311889 | 0.98 | 0.89 | 0.91
CYLC2 | SID135622092 | 1.1 | 1.06 | 0.96
CADM4 | SID134310379 | 1.15 | 0.46 | 0.4
MAOA | SID134314124 | 0.97 | 1 | 1.03
SLC34A1 | SID152152125 | 0.84 | 0.76 | 0.9
EIF2B3 | SID135620792 | 0.93 | 0.8 | 0.86
EARS2 | SID152149589 | 1.19 | 0.94 | 0.79
MAN2A1 | SID135621843 | 1.04 | 0.79 | 0.76
IGFLR1 | SID152149569 | 1.39 | 0.82 | 0.59
TUB | SID134321321 | 0.86 | 0.78 | 0.91
SEMG2 | SID134323479 | 0.92 | 0.7 | 0.76
MYBPC1 | SID134323444 | 0.92 | 0.74 | 0.8
FCN2 | SID152148682 | 1.16 | 1.4 | 1.21
REG3A | SID152152120 | 1 | 0.6 | 0.6
PPP6R1 | SID152150991 | 0.93 | 0.67 | 0.72
P2RX1 | SID134310742 | 1.37 | 0.86 | 0.63
TINAGL1 | SID134313249 | 1.23 | 1.06 | 0.86
CLCN7 | SID134311574 | 1.92 | 0.94 | 0.49
SPACA9 | SID134323149 | 1 | 0.99 | 0.99
INSL5 | SID152154330 | 1.14 | 1 | 0.88
HNRNPA2B1 | SID152148213 | 0.67 | 0.44 | 0.66
GPR37 | SID134309960 | 1.26 | 0.92 | 0.73
ITPRIPL1 | SID135623519 | 0.94 | 0.34 | 0.36
GNB2 | SID134321190 | 1.11 | 1.05 | 0.95
CERT1 | SID56479254 | 0.8 | 0.82 | 1.02
BNC1 | SID152154355 | 1.05 | 1.02 | 0.97
SLC1A2 | SID152154008 | 0.96 | 1.03 | 1.07
C5orf34 | SID134329330 | 0.99 | 0.89 | 0.9
CRYAA | SID134317697 | 1.75 | 0.96 | 0.55
POLR1F | SID152152347 | 1.14 | 0.64 | 0.56
ACOX2 | SID135620931 | 0.95 | 0.82 | 0.86
TRERF1 | SID134317543 | 0.93 | 0.53 | 0.57
HAVCR1 | SID135623853 | 1.38 | 1.5 | 1.09
PLEKHA7 | SID134321905 | 1.05 | 0.82 | 0.78
GZMA | SID135621093 | 1.01 | 0.68 | 0.67

Laid out differently: 5 of the entries above
| gene | PubChem SID | CDH1-null / parental viability ratio | CDH1-null viability vs mock (fraction of mock) | parental viability vs mock (fraction of mock) |
| --- | --- | --- | --- | --- |
| SEMG2 | SID134323479 | 0.92 | 0.7 | 0.76 |
| MYBPC1 | SID134323444 | 0.92 | 0.74 | 0.8 |
| FCN2 | SID152148682 | 1.16 | 1.4 | 1.21 |
| REG3A | SID152152120 | 1 | 0.6 | 0.6 |
| PPP6R1 | SID152150991 | 0.93 | 0.67 | 0.72 |
